Laboratory results published in the supplement of paper PMC12819154, “High-throughput peptide-centric local stability assay extends protein–ligand identification to membrane proteins, tissues and bacteria” (Nature Structural & Molecular Biology, 2025).
This is one part of the list. Most entries show no effect beyond the scatter of the controls.

Protein sequences, listed by entry. Tags and fused reporters are not part of them. Lines headed by an entry give the natural chain unless they say otherwise; changes in a name come on top.
UniProt O75446: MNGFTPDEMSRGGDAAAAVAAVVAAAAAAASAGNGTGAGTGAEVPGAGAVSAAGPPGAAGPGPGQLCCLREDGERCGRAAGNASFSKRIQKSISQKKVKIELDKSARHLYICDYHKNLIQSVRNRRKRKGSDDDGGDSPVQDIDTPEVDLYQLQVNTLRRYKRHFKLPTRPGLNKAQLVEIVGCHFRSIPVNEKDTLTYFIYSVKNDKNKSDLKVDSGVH
UniProt O95379: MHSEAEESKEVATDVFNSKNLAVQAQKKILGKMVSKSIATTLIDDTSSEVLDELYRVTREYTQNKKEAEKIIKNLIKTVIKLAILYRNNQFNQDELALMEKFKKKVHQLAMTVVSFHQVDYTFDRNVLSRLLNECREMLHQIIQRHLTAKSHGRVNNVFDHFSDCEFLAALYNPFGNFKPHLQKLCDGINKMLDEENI
UniProt O95402: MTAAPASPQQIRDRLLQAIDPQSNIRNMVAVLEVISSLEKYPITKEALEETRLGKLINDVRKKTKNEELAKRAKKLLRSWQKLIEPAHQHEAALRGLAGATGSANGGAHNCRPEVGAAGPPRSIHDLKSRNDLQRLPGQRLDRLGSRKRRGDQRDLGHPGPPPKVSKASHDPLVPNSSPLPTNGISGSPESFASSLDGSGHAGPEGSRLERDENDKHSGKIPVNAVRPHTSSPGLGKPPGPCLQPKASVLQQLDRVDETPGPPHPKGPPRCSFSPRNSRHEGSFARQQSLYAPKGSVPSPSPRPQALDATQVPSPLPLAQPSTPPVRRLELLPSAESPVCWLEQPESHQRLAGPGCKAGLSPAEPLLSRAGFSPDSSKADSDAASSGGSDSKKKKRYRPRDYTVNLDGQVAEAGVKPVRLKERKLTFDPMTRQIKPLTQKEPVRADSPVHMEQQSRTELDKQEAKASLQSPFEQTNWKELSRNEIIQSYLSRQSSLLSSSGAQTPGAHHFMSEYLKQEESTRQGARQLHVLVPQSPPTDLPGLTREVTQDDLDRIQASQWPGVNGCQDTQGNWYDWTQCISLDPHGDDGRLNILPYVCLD
UniProt O95197: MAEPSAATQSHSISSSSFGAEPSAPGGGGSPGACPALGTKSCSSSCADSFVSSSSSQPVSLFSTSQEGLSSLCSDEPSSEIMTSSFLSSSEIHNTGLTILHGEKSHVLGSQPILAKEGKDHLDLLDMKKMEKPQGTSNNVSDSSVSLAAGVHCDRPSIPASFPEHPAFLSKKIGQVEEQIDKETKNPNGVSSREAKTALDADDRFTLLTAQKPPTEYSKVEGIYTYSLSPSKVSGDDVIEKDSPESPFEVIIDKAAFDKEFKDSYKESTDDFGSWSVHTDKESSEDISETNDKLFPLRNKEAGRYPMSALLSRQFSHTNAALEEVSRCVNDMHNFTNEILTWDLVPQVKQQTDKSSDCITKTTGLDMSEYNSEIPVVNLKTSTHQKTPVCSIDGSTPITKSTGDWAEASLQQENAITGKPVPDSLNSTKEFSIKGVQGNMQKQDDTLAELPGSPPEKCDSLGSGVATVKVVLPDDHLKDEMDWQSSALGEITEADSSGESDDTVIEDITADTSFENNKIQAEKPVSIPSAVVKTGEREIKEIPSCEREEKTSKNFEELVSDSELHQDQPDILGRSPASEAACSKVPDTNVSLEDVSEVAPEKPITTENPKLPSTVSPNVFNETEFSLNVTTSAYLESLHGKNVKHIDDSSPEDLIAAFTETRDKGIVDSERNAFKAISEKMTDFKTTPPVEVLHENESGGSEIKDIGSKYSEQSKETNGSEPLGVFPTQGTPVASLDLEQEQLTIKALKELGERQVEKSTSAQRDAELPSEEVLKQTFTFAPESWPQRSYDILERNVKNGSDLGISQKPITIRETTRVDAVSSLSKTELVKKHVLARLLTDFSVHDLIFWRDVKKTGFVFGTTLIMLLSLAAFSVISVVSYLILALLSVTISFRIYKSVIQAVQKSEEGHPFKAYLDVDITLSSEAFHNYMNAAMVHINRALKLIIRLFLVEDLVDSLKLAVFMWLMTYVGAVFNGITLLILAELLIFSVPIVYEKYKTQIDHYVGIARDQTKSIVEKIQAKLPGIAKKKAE
UniProt O96006: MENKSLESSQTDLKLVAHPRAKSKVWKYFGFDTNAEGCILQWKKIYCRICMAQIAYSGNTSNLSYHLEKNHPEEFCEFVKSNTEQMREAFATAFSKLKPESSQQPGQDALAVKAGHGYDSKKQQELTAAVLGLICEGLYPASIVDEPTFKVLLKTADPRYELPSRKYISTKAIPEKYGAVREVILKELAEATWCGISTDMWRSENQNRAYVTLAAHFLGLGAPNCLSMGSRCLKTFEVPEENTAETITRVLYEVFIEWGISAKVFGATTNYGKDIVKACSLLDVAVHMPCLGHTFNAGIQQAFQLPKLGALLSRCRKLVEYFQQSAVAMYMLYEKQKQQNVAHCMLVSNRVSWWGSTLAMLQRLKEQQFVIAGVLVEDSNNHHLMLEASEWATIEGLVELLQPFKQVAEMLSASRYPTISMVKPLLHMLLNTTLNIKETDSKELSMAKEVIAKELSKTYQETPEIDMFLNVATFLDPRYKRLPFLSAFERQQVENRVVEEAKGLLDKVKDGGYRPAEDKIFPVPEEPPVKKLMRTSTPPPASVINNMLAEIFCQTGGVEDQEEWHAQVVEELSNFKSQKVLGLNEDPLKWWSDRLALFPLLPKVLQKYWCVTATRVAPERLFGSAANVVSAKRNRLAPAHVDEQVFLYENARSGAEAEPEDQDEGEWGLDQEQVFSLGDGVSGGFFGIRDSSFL
UniProt P00738: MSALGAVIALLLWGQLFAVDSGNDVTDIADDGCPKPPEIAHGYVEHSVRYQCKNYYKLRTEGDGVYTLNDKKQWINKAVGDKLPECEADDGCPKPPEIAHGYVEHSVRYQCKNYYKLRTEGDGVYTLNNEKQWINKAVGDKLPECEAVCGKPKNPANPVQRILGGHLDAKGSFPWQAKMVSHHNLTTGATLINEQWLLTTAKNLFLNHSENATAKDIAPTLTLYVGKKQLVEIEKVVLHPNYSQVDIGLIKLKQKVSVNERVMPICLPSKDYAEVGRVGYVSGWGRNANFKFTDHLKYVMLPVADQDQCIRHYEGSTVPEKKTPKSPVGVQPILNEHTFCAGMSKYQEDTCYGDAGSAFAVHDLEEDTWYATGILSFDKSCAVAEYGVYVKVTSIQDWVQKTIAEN
UniProt O75970: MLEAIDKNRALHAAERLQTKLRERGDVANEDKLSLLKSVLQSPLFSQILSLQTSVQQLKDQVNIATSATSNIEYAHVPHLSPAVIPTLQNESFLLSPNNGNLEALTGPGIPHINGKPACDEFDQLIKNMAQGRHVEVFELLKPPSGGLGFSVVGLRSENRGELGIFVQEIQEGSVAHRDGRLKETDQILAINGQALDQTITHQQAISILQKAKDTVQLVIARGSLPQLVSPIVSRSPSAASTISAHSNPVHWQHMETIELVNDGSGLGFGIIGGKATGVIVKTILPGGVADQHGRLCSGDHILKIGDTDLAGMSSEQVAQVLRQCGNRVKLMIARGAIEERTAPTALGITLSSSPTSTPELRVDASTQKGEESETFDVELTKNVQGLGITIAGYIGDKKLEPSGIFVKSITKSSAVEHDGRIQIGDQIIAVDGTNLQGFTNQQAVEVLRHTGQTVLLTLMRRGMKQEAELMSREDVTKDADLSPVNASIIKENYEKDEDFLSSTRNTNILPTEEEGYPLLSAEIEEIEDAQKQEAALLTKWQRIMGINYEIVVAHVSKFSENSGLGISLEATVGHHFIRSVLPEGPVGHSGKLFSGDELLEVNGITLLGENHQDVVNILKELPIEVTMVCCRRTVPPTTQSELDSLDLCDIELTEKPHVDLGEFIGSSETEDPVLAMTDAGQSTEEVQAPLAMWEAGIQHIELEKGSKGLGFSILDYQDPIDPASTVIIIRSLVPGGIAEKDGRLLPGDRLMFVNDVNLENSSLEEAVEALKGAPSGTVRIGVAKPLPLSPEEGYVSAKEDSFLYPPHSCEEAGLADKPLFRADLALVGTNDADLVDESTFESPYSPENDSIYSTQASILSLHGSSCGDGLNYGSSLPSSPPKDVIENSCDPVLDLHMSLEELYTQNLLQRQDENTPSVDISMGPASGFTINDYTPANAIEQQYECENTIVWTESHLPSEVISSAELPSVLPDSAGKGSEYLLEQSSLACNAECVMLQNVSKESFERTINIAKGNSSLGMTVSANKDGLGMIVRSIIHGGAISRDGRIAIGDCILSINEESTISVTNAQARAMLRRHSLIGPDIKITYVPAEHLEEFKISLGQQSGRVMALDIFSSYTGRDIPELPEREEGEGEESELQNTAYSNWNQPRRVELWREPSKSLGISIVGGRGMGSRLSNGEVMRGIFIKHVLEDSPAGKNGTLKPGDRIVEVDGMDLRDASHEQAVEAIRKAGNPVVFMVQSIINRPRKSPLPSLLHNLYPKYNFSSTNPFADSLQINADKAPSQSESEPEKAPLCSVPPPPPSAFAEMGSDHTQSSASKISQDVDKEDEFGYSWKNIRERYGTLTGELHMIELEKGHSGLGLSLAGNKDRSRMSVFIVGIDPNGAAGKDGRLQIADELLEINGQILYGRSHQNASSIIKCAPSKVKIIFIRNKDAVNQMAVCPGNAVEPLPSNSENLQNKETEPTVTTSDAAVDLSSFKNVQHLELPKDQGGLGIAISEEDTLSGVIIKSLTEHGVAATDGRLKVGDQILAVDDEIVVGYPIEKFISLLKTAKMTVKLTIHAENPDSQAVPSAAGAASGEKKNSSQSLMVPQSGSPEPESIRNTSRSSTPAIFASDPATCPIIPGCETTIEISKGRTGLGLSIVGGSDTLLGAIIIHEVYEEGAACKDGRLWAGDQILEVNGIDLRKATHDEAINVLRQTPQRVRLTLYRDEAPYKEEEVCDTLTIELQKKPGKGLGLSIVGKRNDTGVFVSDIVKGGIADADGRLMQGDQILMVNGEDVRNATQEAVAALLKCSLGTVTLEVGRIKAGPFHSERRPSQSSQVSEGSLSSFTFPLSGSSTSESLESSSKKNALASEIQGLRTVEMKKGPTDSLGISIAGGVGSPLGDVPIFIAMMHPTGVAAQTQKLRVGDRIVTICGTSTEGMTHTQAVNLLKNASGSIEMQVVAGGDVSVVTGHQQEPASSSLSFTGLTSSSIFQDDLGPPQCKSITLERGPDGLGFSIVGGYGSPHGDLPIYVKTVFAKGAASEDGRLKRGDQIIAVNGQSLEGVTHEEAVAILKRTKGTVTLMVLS
UniProt O75971: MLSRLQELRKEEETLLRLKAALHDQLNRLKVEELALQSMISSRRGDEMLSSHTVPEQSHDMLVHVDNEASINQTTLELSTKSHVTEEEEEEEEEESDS
UniProt O75792: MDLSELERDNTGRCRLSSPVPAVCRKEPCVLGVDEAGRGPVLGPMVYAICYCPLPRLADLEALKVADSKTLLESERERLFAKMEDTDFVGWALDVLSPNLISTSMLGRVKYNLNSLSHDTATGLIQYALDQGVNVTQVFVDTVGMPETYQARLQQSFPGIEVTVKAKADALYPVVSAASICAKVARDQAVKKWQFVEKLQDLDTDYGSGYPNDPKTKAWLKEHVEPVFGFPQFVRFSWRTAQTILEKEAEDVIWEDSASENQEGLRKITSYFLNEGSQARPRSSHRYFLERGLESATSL
UniProt O95861: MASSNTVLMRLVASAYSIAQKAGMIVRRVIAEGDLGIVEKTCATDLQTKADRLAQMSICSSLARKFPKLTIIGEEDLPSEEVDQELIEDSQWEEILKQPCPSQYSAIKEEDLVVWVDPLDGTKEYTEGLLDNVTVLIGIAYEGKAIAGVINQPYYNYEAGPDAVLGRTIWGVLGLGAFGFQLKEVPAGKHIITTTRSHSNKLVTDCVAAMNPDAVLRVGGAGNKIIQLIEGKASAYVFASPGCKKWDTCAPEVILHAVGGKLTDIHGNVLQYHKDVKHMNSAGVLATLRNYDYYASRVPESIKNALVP
UniProt O76061, whole entry: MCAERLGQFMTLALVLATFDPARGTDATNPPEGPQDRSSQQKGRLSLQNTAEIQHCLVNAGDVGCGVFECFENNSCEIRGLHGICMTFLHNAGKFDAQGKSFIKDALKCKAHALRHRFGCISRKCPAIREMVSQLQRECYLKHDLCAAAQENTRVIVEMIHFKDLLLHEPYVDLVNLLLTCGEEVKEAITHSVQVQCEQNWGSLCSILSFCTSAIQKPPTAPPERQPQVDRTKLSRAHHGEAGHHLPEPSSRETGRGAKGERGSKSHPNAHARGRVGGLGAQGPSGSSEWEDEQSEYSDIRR
UniProt O95229: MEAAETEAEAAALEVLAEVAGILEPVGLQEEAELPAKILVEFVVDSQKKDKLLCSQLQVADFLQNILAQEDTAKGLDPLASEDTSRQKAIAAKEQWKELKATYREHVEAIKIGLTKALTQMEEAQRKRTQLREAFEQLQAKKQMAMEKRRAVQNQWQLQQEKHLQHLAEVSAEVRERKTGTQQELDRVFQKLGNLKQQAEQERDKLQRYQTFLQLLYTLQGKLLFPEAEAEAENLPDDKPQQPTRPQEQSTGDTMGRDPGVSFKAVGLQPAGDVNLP

compound: Cc1nc(Nc2ncc(C(=O)Nc3c(C)cccc3Cl)s2)cc(N2CCN(CCO)CC2)n1 [dasatinib]; assay: log2 fold change of tryptic peptide abundance, ligand vs vehicle (limited proteolysis) (log2 ratio); higher = more trypsin-susceptible (destabilized); details: ligand concentration: 5 uM; sample: K562 cleared lysate

Target	log2 fold change
SAP30 (peptide sequence: AAGNASFSKR, peptide start residue: 79) (UniProt O75446)	-0.135
TNFAIP8 (peptide sequence: EYTQNKK, peptide start residue: 60) (UniProt O95379)	-0.287
MED26 (peptide sequence: LTFDPMTR, peptide start residue: 425) (UniProt O95402)	0.362
UniProt P00491 (peptide sequence: ANHEEVLAAGK, peptide start residue: 255)	0.173
ZFPL1 (peptide sequence: DDDRTPGLHGDCDDDKYR, peptide start residue: 219) (UniProt O95159)	0.0335
RTN3 (peptide sequence: DAELPSEEVLK, peptide start residue: 765) (UniProt O95197)	-0.108
ZBED1 (peptide sequence: SLESSQTDLK, peptide start residue: 5) (UniProt O96006)	0.294
AK1 (peptide sequence: VDDNEETIKKR, peptide start residue: 139) (UniProt P00568)	-0.225
E2F6 (peptide sequence: KLPSLLLDPTEETVR, peptide start residue: 9) (UniProt O75461)	-0.286
HP (peptide sequence: LPECEAVCGKPK, peptide start residue: 142) (UniProt P00738)	0.439
MPDZ (peptide sequence: LTIHAENPDSQAVPSAAGAASGEKK, peptide start residue: 1558) (UniProt O75970)	-0.43
STAM2 (peptide sequence: HGEIIIVLDDSDANWWKGENHR, peptide start residue: 225) (UniProt O75886)	0.131
SMC2 (peptide sequence: DYDWINAER, peptide start residue: 937) (UniProt O95347)	0.107
SNAPC5 (peptide sequence: KEEETLLR, peptide start residue: 10) (UniProt O75971)	0.142
RNASEH2A (peptide sequence: TAQTILEK, peptide start residue: 240) (UniProt O75792)	0.263
AGFG2 (peptide sequence: STQPPPHSSVK, peptide start residue: 209) (UniProt O95081)	0.19
UniProt O94822 (peptide sequence: VFNIVDRFTSK, peptide start residue: 1590)	-0.264
BPNT1 (peptide sequence: NYDYYASR, peptide start residue: 290) (UniProt O95861)	-0.317
POLR1A (peptide sequence: QLLTPATGAPKPQGTK, peptide start residue: 521) (UniProt O95602)	0.303
MYO1D (peptide sequence: DLIVCLFSKQPTHESR, peptide start residue: 926) (UniProt O94832)	0.594
UniProt O96028 (peptide sequence: LRFESQEMK, peptide start residue: 98)	0.415
STC2 (peptide sequence: AHHGEAGHHLPEPSSR, peptide start residue: 237) (UniProt O76061)	0.363
UniProt O95670 (peptide sequence: ASQSQGIQQLLQAEKR, peptide start residue: 2)	-0.207
FRYL (peptide sequence: QFNLEIIK, peptide start residue: 2221) (UniProt O94915)	0.516
SEC31A (peptide sequence: TTFEDLIQR, peptide start residue: 1121) (UniProt O94979)	0.121
ZWINT (peptide sequence: EAFEQLQAKK, peptide start residue: 133) (UniProt O95229)	-0.668
UniProt O95626 (peptide sequence: IKDLSTIEPLK, peptide start residue: 100)	0.0524
UniProt O96017 (peptide sequence: SCEYCFDEPLLKR, peptide start residue: 120)	-0.122
ECD (peptide sequence: VFFCHGELCIIPAPRK, peptide start residue: 138) (UniProt O95905)	-0.327

Random excerpt: two records from the list, in no set order.
Target	log2 fold change
ZFPL1 (peptide sequence: DDDRTPGLHGDCDDDKYR, peptide start residue: 219) (UniProt O95159)	0.0335
ECD (peptide sequence: VFFCHGELCIIPAPRK, peptide start residue: 138) (UniProt O95905)	-0.327
